Experimental findings from PMC10333072 are described below.

By UniProt entry, the sequences of proteins in these tests, tags left out. Residues count along the entry.
UniProt Q80U78: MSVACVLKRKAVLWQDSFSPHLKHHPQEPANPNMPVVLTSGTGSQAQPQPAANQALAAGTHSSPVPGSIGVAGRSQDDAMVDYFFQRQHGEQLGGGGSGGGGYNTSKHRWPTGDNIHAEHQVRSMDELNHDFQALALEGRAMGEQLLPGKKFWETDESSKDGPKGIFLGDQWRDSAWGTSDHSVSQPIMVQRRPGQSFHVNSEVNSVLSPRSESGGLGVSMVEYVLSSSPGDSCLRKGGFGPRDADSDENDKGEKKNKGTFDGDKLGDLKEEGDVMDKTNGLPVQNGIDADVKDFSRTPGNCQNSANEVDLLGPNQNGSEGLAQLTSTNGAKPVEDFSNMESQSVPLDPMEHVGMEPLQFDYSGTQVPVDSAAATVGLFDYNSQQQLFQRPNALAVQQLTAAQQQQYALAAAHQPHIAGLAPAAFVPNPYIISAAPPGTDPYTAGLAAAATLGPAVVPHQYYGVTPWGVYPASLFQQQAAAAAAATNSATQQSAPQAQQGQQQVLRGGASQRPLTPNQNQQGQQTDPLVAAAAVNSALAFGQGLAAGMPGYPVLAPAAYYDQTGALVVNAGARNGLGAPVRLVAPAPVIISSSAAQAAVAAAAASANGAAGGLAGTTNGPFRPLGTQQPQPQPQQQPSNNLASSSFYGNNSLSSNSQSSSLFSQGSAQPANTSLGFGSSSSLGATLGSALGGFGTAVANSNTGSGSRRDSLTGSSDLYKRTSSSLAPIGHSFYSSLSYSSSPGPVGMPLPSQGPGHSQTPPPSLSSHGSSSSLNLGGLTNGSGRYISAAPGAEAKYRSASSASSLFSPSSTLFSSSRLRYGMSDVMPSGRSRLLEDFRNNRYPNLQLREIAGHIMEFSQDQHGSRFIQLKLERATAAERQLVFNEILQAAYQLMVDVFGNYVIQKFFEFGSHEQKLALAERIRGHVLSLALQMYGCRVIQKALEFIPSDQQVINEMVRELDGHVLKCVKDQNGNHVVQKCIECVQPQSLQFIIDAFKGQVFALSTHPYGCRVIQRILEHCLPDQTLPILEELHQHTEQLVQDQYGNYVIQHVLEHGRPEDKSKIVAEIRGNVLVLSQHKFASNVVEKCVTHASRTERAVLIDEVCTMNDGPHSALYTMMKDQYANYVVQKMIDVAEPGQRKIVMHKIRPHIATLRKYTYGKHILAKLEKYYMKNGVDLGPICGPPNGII
UniProt P51865, residues 18-134: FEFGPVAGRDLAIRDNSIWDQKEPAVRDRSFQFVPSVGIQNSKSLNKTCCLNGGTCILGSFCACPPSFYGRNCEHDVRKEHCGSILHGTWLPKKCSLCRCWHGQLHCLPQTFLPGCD

Results are given in words; binding and its absence hold for the method and conditions named. Binding seen in cells or lysates may run through a third protein. Some results given as binding are weak or reduced against the parent protein; the word gives no strength.

Test [1] has as its target PUM1 (mouse (endogenous in RAW264.7)) (UniProt Q80U78). Description: co-IP; RAW264.7 cells; precipitation of PUM1, blot for Cripto-1; conditions not given.
For the next test, the target named is GST-Cripto-1 (UniProt P51865). Description: pull-down; GST-CR-1 as bait, His-PUM1 detected by blot; conditions not given.

As to Cripto-1 (from UniProt P51865 18-134), the binding result in test [1] was “binds”. As to His-PUM1 (from UniProt Q80U78 1-1189), the binding entry with GST-Cripto-1 was “binds”.
